About 7,700 (2.3%) of roughly 330,000 compounds were called active. The inconclusive results got no clear call from the source; some entries with a clear call stand among them for comparison. Calls follow the shape of the dose curve; as a rule, active = well fitted inhibition curve with a large enough effect; inconclusive = small, poorly fitted or top-dose-only effect, or effect the other way; inactive = flat fitted curve, though single readings scatter. Where the call is inconclusive, the potency comes from a doubtful curve fit.
Assay: qHTS screen for small molecules that inhibit ELG1-dependent DNA repair in human embryonic kidney (HEK293T) cells expressing luciferase-tagged ELG1; also: nearly all actives have a fitted effect of over 55% in size
Details: HEK293T ELG1-luciferase reporter, luminescence, 16 h, DNA damage induced by 5-fluorouridine; activity change, negative = inhibition: at 46.1 µM (top of the series)
Method in brief: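 5-Fluorouridine DNA damage + compound/DMSO, 2,000 cells/well, 16 h, 37 °C/5% CO2. ONE-Glo, 30 min RT, luminescence. Readout = decrease in reporter signal.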
For `CC1CCc2c(sc(NC(=S)NC(=O)c3ccccc3)c2C#N)C1` (stereo not drawn), the Potency was inconclusive: 18.3 µM [activator, partial curve].
In the case of `Cc1ccc(-c2ccc([C@H]3[C@@H]4C=CCC[C@@]4(C)C(=O)N3Cc3ccccc3)c(F)c2)cc1`, the Potency is reported as inconclusive: 20.6 µM [inhibitor, single point].
For `Cc1ccccc1-c1nnc(CN2CCC(C)CC2)o1`, the Potency was inconclusive: 23.1 µM [activator, partial curve].
In the case of `CCn1c(N2CCN(CC(=O)c3c(C)n(C)c4ccccc34)CC2)nc2c1c(=O)[nH]c(=O)n2C`, the Potency is reported as inconclusive: 5.8 µM [inhibitor, partial curve].
For `Cc1c(C(=O)NC2CCN(Cc3ccccc3)C2)oc2ccc(Br)cc12` (stereo not drawn), the Potency was inconclusive: 20.6 µM [activator, partial curve, poor fit].
In the case of `COc1cc(C(C)=O)ccc1OCC(=O)N1CCc2ccccc2C1`, the “activity change, negative = inhibition” value is reported as inactive: 15.4%.
With `CCOC(=O)CCSc1nc(N2CCOCC2)c2c(c1C#N)CC(C)(C)OC2` the Potency was active: 1.03 µM.
For `O=C(CSc1nnnn1-c1ccccc1)c1cc2ccccc2oc1=O`, the Potency was inconclusive: 13 µM [activator, partial curve, poor fit].
For `Cc1ccc(-n2nnc(-c3nccn3C)n2)cc1`, the Potency was inconclusive: 2.59 µM [activator, full curve].
In the case of `O=[N+]([O-])c1ccc(NCCCNS(=O)(=O)c2ccccc2)c(Cl)c1`, the “activity change, negative = inhibition” value is reported as inactive: -8.22%.
For `N#C/C(=C\c1c[nH]c2ccccc12)C(=O)Nc1ncc(Cc2ccc(Cl)cc2Cl)s1`, the Potency was inconclusive: 29.1 µM [inhibitor, single point].
In the case of `Cc1ccc(SCc2cc(=O)[nH]c(Nc3nc(C)c4ccc(C)cc4n3)n2)cc1`, the “activity change, negative = inhibition” value is reported as inactive: 12.1%.
For `Cc1cc2nc(C)c(=O)n(C)c2cc1C`, the “activity change, negative = inhibition” value was inactive: 14.3%.
For `CCOc1cc(NC(=S)NC)c(OCC)cc1NC(=O)c1ccco1`, the Potency was inconclusive: 16.4 µM [inhibitor, partial curve, poor fit].
In the case of `C=CCn1c(SCC(=O)c2cc(C)n(C(C)COC)c2C)nc2sc(C)c(C)c2c1=O` (stereo not drawn), the Potency is reported as inconclusive: 18.4 µM [inhibitor, single point].
With `CCOC(=O)c1cn(Cc2ccccc2)c2cc(C)nn2c1=O` the Potency was inconclusive: 18.3 µM [inhibitor, partial curve, poor fit].
With `CCOC(=O)c1sc(-c2ccc(F)cc2)cc1NC(=O)Nc1ccccc1OC` the “activity change, negative = inhibition” value was inactive: -7.69%.
For `COc1ccc2c(c1)OC[C@H]1[C@@H]2N2C(=O)[C@@H](C)NC(=O)[C@@]2(C)[C@H]1c1ccccc1`, the Potency was inconclusive: 23.1 µM [activator, partial curve, poor fit].
With `CC(=O)c1c(C)[nH]c(C(=O)N(C)C(c2ccccc2)c2ccccc2)c1C` the Potency was inconclusive: 29.1 µM [inhibitor, single point].
With `O=c1[nH]cnc2c1sc1nc(-c3ccccc3)c3c(c12)CCCC3` the Potency was inconclusive: 16.4 µM [activator, partial curve, poor fit].
For `COc1ccc2c(c1OC)C(=O)N(c1cccc(C)c1)C2=O`, the Potency was inconclusive: 20.6 µM [activator, partial curve].
With `CCOc1c(OC(C)=O)ccc(/C=C/c2ccc3cccc(OC)c3n2)c1[N+](=O)[O-]` the “activity change, negative = inhibition” value was inactive: -14%.
In the case of `CCOC(=O)C1=C(CC)Nc2ccccc2N=C1NC(=O)Nc1ccc(Cl)c(Cl)c1`, the Potency is reported as active: 18.4 µM.
With `CC(C(=O)Nc1ccc(F)c(F)c1)N1CCN(C)CC1` (stereo not drawn) the “activity change, negative = inhibition” value was inactive: -7.86%.
With `CC1(C)Cc2c(C#N)c(NCCN3CCOCC3)nc(-c3ccco3)c2CO1` the Potency was inconclusive: 3.26 µM [inhibitor, single point].
In the case of `COc1ccc(N=Cc2c(O)[nH]c3ccccc23)cc1OC`, the Potency is reported as inconclusive: 0.116 µM [inhibitor, full curve, poor fit].
With `O=C(O)CCSc1nnc(-c2ccncc2)n1-c1ccccc1` the “activity change, negative = inhibition” value was inactive: 1.89%.
With `Cc1ccn(CCC(=O)NC2CC(C)(C)Cc3c2cnn3-c2ccccc2C)n1` (stereo not drawn) the “activity change, negative = inhibition” value was inactive: 0.223%.
With `COC(=O)c1ccccc1NC(=O)c1cccc(NC(=O)c2ccc(Br)o2)c1C` the Potency was inconclusive: 29.1 µM [inhibitor, single point].
In the case of `CCC1CCCCN1CCCNC(=O)CCNC(=O)Cn1cnc2ccccc2c1=O` (stereo not drawn), the “activity change, negative = inhibition” value is reported as inactive: 1.24%.
In the case of `CCC(Sc1nncn1C)C(=O)Nc1nnc(-c2ccc(Cl)cc2)s1` (stereo not drawn), the Potency is reported as inconclusive: 29.1 µM [activator, single point].
With `CC(=O)c1c(C)[nH]c(C(=O)OCc2nnc(-c3ccccc3)o2)c1C` the Potency was inconclusive: 20 µM [inhibitor, single point].
With `COc1ccc(-c2cc(C(=O)Nc3ccccc3F)on2)cc1` the Potency was inconclusive: 8.2 µM [activator, partial curve].
For `O=C(COc1ccccc1)Nc1ccc(Cl)cc1Cl`, the Potency was inconclusive: 20.6 µM [activator, partial curve].
With `COc1cc(S(=O)(=O)N(Cc2ccccn2)Cc2ccccc2Cl)ccc1-n1cnnn1` the Potency was inconclusive: 14.6 µM [inhibitor, single point].
With `COC(=O)N/N=C(C)\C=C\c1ccco1` the Potency was inconclusive: 16.4 µM [activator, single point].
In the case of `COc1cccc(-c2cc3nc4c(c(N5CCC6(CC5)OCCO6)n3n2)CCCC4)c1`, the Potency is reported as inconclusive: 15.8 µM [inhibitor, single point].
With `O=S(=O)(NCC(c1ccc2c(c1)OCO2)N1CCN(c2ccccc2)CC1)c1ccccc1` (stereo not drawn) the Potency was inconclusive: 16.4 µM [inhibitor, single point].
For `CCCCn1c(N)c(N(CCOC)C(=O)c2cnc(C)cn2)c(=O)[nH]c1=O`, the “activity change, negative = inhibition” value was inactive: 7.4%.
In the case of `COc1ccc(NC(=O)CCSc2nnnn2C)cc1`, the Potency is reported as inconclusive: 16.4 µM [activator, partial curve].
With `O=C(CCCN1C(=O)c2ccccc2C1=O)NCCC1=CCCCC1` the “activity change, negative = inhibition” value was inactive: 10.6%.
For `Cc1ccccc1-n1c(C)nnc1SCC(=O)N1CC(=O)Nc2ccccc21`, the Potency was inconclusive: 2 µM [inhibitor, partial curve, poor fit].
With `CCn1cc(C(=O)OCC(=O)Nc2cc(S(=O)(=O)N(C)C)ccc2C)c(=O)c2ccc(C)nc21` the Potency was inconclusive: 20.6 µM [inhibitor, partial curve].

— PubChem BioAssay AID504467 (National Center for Advancing Translational Sciences (NCATS), 2011)
% is scaled to controls: 0 for no effect and ±100 for the full control effect; potency is read from the fitted curve at half-maximal effect.
